We go through 62 compounds from PubChem BioAssay AID493014 (National Center for Advancing Translational Sciences (NCATS), 2011).

The nature of this assay: qHTS Assay to Find Inhibitors of Chronic Active B-Cell Receptor Signaling. To be noted: ABC-DLBCL IkBa-CBG/CBR reporter, luminescence ratio (green luciferase fused to IkBa over red control in TMD8 lymphoma cells), 4 h. Summed up: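 Compounds up to 46 uM were incubated four hours with TMD8 cells whose green CBG68 luciferase is fused to IkappaBalpha; red CBR luminescence normalised the signal, and concentration-effect curves were fitted to fusion, red and ratio data.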
(Quantitative high-throughput screening tests each substance at several concentrations.)

Where [1] appears, read: measured here: CBR red luminescence, cell number.
[2] abbreviates: measured here: IkBa-CBG green luminescence.

Molecules are shown by their SMILES. The list shows a part of the results. Further columns of the screen follow, without active or inactive calls. Compounds called inactive in the main read-out are mostly missing here. The note in brackets gives the kind of curve behind each potency; many fits are weak.

On to `O=C(NCC1CCCO1)C(=O)N/N=C/c1ccccc1C(=O)O` (centres undefined), for which the AC50 under setting [1] is 10 µM [falling, partial curve].
Same read-out and setting: under `CCOC(=O)c1sc(NC(=O)c2cc(-c3ccccc3C)nc3ccccc23)c(C#N)c1C` stands 16.4 µM [falling, partial curve]; under `CCOC(=O)N1CCN(C(=O)C2c3cc(OC)c(OC)cc3C(=O)N3CCc4ccccc4C23)CC1` (centres undefined), 2.59 µM [falling, partial curve, poor fit]; under `CCOC(=O)c1ccc2c(c1)NCc1cccc(OC)c1O2`, 6.31 µM [falling, partial curve, poor fit].
Take `C/C(CC(=O)Nc1cc(C)ccn1)=N\NC(=O)C(=O)Nc1cccc(C)c1`: the concentration at half-maximal activity (AC50) under setting [1] is 16.4 µM [falling, partial curve].
With `O=C1NC2=C(C(=O)CCC2)C(c2ccc3ncccc3c2)N1` (centres undefined), under setting [1], the AC50 is 14.6 µM [rising, partial curve, poor fit].
With `CCOn1c(=O)c(-c2cccs2)[n+]([O-])c2ccccc21`, the AC50 under setting [1] is 9.2 µM [falling, partial curve, poor fit].
Take `O=C(O)CCCNc1cc(N2CCN(C(=O)c3ccco3)CC2)c2noc3c2c1C(=O)c1ccccc1-3`: the AC50 is 10 µM [falling, partial curve, poor fit] under setting [1] and 12.6 µM [rising, partial curve, poor fit] under setting [2].
With `O=C(Nc1ccccc1)C1=C(c2ccccc2)S(=O)(=O)CCS1(=O)=O`, the AC50 under setting [1] was 2.82 µM [falling, full curve].
As for `Cc1ccc(S(=O)(=O)N2CCC(C(=O)N[C@@H](C)C(=O)Nc3ccc(F)cc3)CC2)cc1`, the AC50 under setting [1] is 3.16 µM [falling, full curve, poor fit].
Take `O=C(CSc1nc(-c2ccccc2)c(-c2ccccc2)[nH]1)NCCN1C(=O)CSC1=O`: the concentration at half-maximal activity (AC50) by setting is: under setting [1], 35.5 µM [rising, single point]; under setting [2], 20 µM [falling, single point].
In the case of `Cc1nn2c(N)c(C#N)cnc2c1-c1ccccc1`, the half-maximal activity concentration (AC50) under setting [1] was 20.6 µM [rising, single point].
For the compound `Cc1cc(C)nc(N/N=C/c2ccco2)n1`, the AC50 under setting [1] is 13 µM [falling, partial curve, poor fit].
As for `O=C(Oc1ccc(/C=N/NC(=O)c2ccccc2O)cc1)c1ccccc1`, the concentration at half-maximal activity (AC50) under setting [1] was 1.64 µM [falling, full curve].
Consider `COc1cccc(NC(=O)c2ccc(S(=O)(=O)NCc3cccnc3)cc2)c1`, for which, under setting [1], the AC50 is 35.5 µM [falling, single point].
For `CCCn1c(CN2CCN(C(=O)OCC)CC2)nc2cc(NC(=O)CC)ccc21`, the AC50 by setting is: under setting [1], 12.6 µM [rising, single point]; under setting [2], 22.4 µM [falling, single point].
In the case of `CCOc1cccc2sc(N(Cc3cccnc3)C(=O)c3ccc(C#N)cc3)nc12`, the AC50 under setting [1] was 3.98 µM [falling, partial curve, poor fit].
Consider `O=c1[nH]c2ccccc2n1CCC1CCCCC1`, for which the AC50 under setting [1] was 2.31 µM [rising, partial curve, poor fit].
Still for that read-out and setting: under `O=C(Cn1[nH]c(=O)c2ccccc2c1=O)Nc1cccnc1` stands 7.08 µM [falling, full curve, poor fit].
Turning to `CSCCC(NC(=O)COc1ccccc1)C(=O)N1CCN(c2ccccc2Cl)CC1` (centres undefined), the AC50 under setting [1] was 32.6 µM [falling, single point].
As to `O=C(c1cccnc1)N1c2ccccc2Sc2ccccc21`, the AC50 under setting [1] is 35.5 µM [falling, single point].
Still for that read-out and setting: the same measure for `CC1CCC(NC(=O)C(=O)Nc2ccc3c(c2)OCO3)CC1` (centres undefined): 0.708 µM [falling, full curve].
Turning to `CN(C)c1ccc(/C=C(\C#N)c2ccccc2)cc1`, the AC50 under setting [1] is 35.5 µM [falling, single point] and the AC50 under setting [2] was 17.8 µM [falling, partial curve].
For the compound `Cn1c(=O)c2cc(NCc3ccccc3)nnc2n(C)c1=O`, the half-maximal activity concentration (AC50) under setting [1] is 2 µM [falling, partial curve, poor fit].
Consider `CC(C)Oc1ccc(/C=C/C(=O)NCC2COc3ccccc3O2)cc1` (centres undefined), for which the AC50 under setting [1] is 17.8 µM [rising, partial curve, poor fit].
Turning to `COc1ccc(-n2ncc3c(NCCCOC(C)C)ncnc32)cc1`, the AC50 under setting [1] is 35.5 µM [falling, single point].
Regarding `O=C(Nc1ccc(Cl)cc1)[C@@H]1[C@@H]2C(=O)N(c3cccc(F)c3)C(=O)[C@@H]2[C@H]2C=CC=NN21`, the AC50 under setting [1] is 11.2 µM [falling, partial curve].
Turning to `NC(=O)c1cc[n+](CC(=O)c2ccc(NC(=O)c3ccccc3)cc2)cc1`, the AC50 under setting [1] was 0.355 µM [rising, full curve, poor fit].
Consider `CC(OC(=O)Cc1n[nH]c(=O)c2ccccc12)C(=O)Nc1cc(Cl)cc(Cl)c1` (centres undefined), for which, under setting [1], the AC50 was 23.1 µM [falling, single point].
On the same count and under the same terms, the same measure for `COc1ccc(/C=N/NC(=O)Cn2nc(C)c([N+](=O)[O-])c2C)cc1`: 29.1 µM [rising, single point].
As for `CN1CCc2c(c3c(n2C)CCN(C)[C@@H]3c2cccnc2)[C@H]1c1cccnc1`, the concentration at half-maximal activity (AC50) under setting [1] was 35.5 µM [falling, single point].
On the same count and under the same terms, under `COc1ccc(OC)c(-n2c(Cn3c(-c4ccccn4)nc4ccccc43)n[nH]c2=S)c1` stands 0.0794 µM [rising, full curve, poor fit]; under `O=C(O)/C=C\C(=O)Nc1ccccc1C(=O)NC1CCCCC1`, 1.12 µM [falling, partial curve, poor fit].
In the case of `CC1=CC(=O)C=CC1(C)C(Cl)Cl` (centres undefined), the AC50 under setting [1] is 6.31 µM [falling, single point].
Regarding `O=C(CCl)Nc1cn(-c2ccccc2)nc1-c1ccccc1`, the concentration at half-maximal activity (AC50) under setting [1] is 12.6 µM [falling, partial curve] and the AC50 under setting [2] is 35.5 µM [rising, partial curve, poor fit].
In the case of `O=C(O)CCC(=O)Nc1nc2ccc([N+](=O)[O-])cc2s1`, the half-maximal activity concentration (AC50) under setting [1] was 12.6 µM [falling, partial curve].
For `CCCCNC(=O)CC1C(=O)N(Cc2ccccc2)C(C)c2nc3ccccc3n21` (centres undefined), the half-maximal activity concentration (AC50) under setting [1] was 0.0891 µM [falling, full curve, poor fit].
In the case of `O=C(CCl)c1ccc2c(c1)CCN2C(=O)C1CCCCC1`, the AC50 under setting [1] was 15.8 µM [falling, single point].
In the case of `Cc1cc(C)c(S(=O)(=O)Nc2cccnc2)c(C)c1`, under setting [1], the half-maximal activity concentration (AC50) was 6.51 µM [falling, single point].
With `CN(c1ccc2nc3ccccc3c(=O)n2n1)C1CCCCC1`, under setting [1], the AC50 was 10 µM [falling, single point].
Turning to `COc1ccc(CCNC(=O)CN2c3cccc4cccc(c34)S2(=O)=O)cc1`, under setting [1], the AC50 was 4.61 µM [rising, full curve, poor fit].
In the case of `COc1ccccc1/C=C/C(=O)OCCCN(C)C`, under setting [1], the AC50 was 20 µM [falling, single point].
As to `CC(C)(O)C#Cc1ccc(CN2CCCC(CO)(Cc3cccc(Cl)c3)C2)cc1` (centres undefined), under setting [1], the AC50 is 11.2 µM [falling, partial curve].
As for `CCCCCCC1/C(=N\NC(=O)c2ccccc2)CCC1C(=O)OC` (centres undefined), the AC50 under setting [1] was 20 µM [falling, partial curve].
As to `C=CCNC(=S)N/N=C/c1ccc(-c2cc(Cl)ccc2Cl)o1`, under setting [1], the AC50 is 11.2 µM [rising, partial curve, poor fit].
`CCOP(=O)(Cc1ccc(C(C)(C)CC(C)=O)o1)OCC`: under setting [1], the half-maximal activity concentration (AC50) was 3.55 µM [rising, partial curve, poor fit].
Consider `CCc1ccc(NC(=O)c2noc3c2CCC3)cc1`, for which the AC50 under setting [1] is 11.6 µM [falling, single point].
Same read-out and setting: the same measure for `CN1CCCC(CC2Oc3ccccc3Sc3ccccc32)C1` (centres undefined): 29.1 µM [falling, single point]; for `O=C(CSc1nc2ccccc2c(=O)[nH]1)Nc1ccccc1N1CCOCC1`: 3.55 µM [falling, partial curve, poor fit].
Same read-out and setting: the same measure for `CC(C)(C)NC(=O)COC(=O)c1snc(C(=O)NC2CCCCC2)c1N`: 29.1 µM [falling, partial curve, poor fit].
Turning to `Cc1cccc(OCC(=O)NCC(=O)N/N=C/c2ccc(O)cc2O)c1`, the AC50 under setting [1] is 25.1 µM [falling, single point].
Take `CCCCC(=O)NC(c1cccc([N+](=O)[O-])c1)c1c(OC(C)=O)ccc2ccccc12` (centres undefined): the AC50 under setting [1] was 23.1 µM [falling, single point].
Turning to `Cc1nc(Nc2c(Cl)cccc2Cl)sc1C(=O)Nc1ccccc1`, the AC50 under setting [1] was 1.64 µM [falling, full curve, poor fit].
For the compound `COc1cccc(OCCn2cc(/C=N/NC(=O)c3ccncc3)c3ccccc32)c1`, the concentration at half-maximal activity (AC50) under setting [1] was 0.103 µM [rising, full curve, poor fit].
Consider `CCc1ccccc1NC(=O)CN(C)C(=O)Cn1ncc(Cl)c(Cl)c1=O`, for which the AC50 runs as follows: under setting [1], 5.8 µM [falling, full curve]; under setting [2], 6.51 µM [rising, full curve, poor fit].
For `COc1ccccc1NC(=S)N(Cc1cccnc1)Cc1ccccc1Cl`, under setting [1], the AC50 is 10 µM [rising, partial curve].
`CCn1cnc2cc(NCc3nc4ccccc4n3Cc3ccccc3)ccc21`: under setting [1], the AC50 was 29.1 µM [falling, single point].
`O=C(Nc1ccc(Br)cc1F)c1ccc2c(c1)OCCO2`: the AC50 under setting [1] was 6.31 µM [falling, full curve].
For `Cc1ccccc1OCC(=O)NNC(=S)NC(=O)c1ccco1`, the AC50 under setting [1] was 2.82 µM [falling, full curve].
In the case of `Clc1cc(Br)ccc1OCCOCCOc1cccc2cccnc12`, under setting [1], the AC50 is 3.55 µM [rising, full curve].
For the compound `Cc1nc2ccccc2c(=O)n1/N=C/c1cn(-c2ccccc2)nc1-c1cccs1`, the AC50 under setting [1] was 2.82 µM [falling, partial curve].
Consider `Cc1cc(Nc2ccccc2Cl)nc(-c2ccccc2O)n1`, for which the AC50 by setting is: under setting [1], 8.91 µM [falling, partial curve]; under setting [2], 14.1 µM [rising, partial curve, poor fit].

In general, AC50 refers to the concentration giving half of the maximal activity seen.
